SMILES strings stand for the structures. The list shows a part of the results.

The nature of this assay: anaerobic choline-dependent bacterial growth inhibition – minimal medium, absorbance (AID 1963822). As to conditions: Gram-negative bacterium anaerobic choline minimal medium, measured here: choline growth z-score, timepoint 1, stronger effect = lower value.
With `Cc1cc(C)c2c(C)c(C(=O)NCC3(N4CCOCC4)CCCCC3)oc2c1`, the z-score was -1.76.
Then `Cc1c(C(=O)NCC2(N3CCOCC3)CCCCC2)oc2cc(Br)ccc12`, with -2.47; and `Cc1c(C(=O)NCC2(N3CCOCC3)CCCCC2)oc2ccc(Cl)cc12`, with 0.41; and `Cc1c(C(=O)NCC2(N3CCOCC3)CCCCC2)oc2ccc(Br)cc12`, with -0.29.
Then `Cc1c(C(=O)NCC2(N(C)C)CCCCC2)oc2ccc(Br)cc12`, with 0.47; and `Cc1ccc2c(C)c(C(=O)NCC3(N(C)C)CCCCC3)oc2c1C`, with -0.35.
Then `Cc1c(C(=O)NCC2(N3CCOCC3)CCCCC2)oc2ccc(F)cc12`, with -1.63; and `Cc1c(C(=O)NCC2(N(C)C)CCCCC2)oc2cc(Br)ccc12`, with 0.37.
`Cc1c(C(=O)NCC2(N(C)C)CCCCC2)oc2ccc(Cl)cc12` returned a z-score of 0.7.

The values are drawn from PubChem BioAssay AID1963822 (ICCB-Longwood Screening Facility, Harvard Medical School, 2024).
